Consider one molecule from publication PMC7532498.

The assay deals with T1, CXXC finger protein 4 (CXXC4) with 3XFlag, from GV141-CXXC4-3XFlag (UniProt Q9H2H0).
T1 sequence: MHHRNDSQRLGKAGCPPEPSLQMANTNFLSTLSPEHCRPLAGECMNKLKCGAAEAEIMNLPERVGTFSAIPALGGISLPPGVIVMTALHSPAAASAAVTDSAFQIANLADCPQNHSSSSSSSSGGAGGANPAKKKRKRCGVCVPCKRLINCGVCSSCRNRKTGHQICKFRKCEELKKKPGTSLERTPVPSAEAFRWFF
In words: co-IP; HCCLM3 cells (2 x 10^6) lysed in Tris-HCl pH 7.5, 150 mM NaCl, 1% Nonidet P-40, 10% glycerol; pre-cleared lysates with anti-flag or anti-Dvl-1 antibodies overnight at 4°C, protein A/G agarose 2 h; rabbit IgG as control; Western blotting.

These are yes or no findings as the source states them, for the method shown. Binding seen in cells or lysates may run through a third protein. Some binding calls cover weakened binding; strength is not graded here. Sequences can lack the tags named with a protein.

B1: Dvl-1 (protein, UniProt O14640 1-695)
chain: MAETKIIYHMDEEETPYLVKLPVAPERVTLADFKNVLSNRPVHAYKFFFKSMDQDFGVVKEEIFDDNAKLPCFNGRVVSWLVLAEGAHSDAGSQGTDSHTDLPPPLERTGGIGDSRPPSFHPNVASSRDGMDNETGTESMVSHRRERARRRNREEAARTNGHPRGDRRRDVGLPPDSASTALSSELESSSFVDSDEDGSTSRLSSSTEQSTSSRLIRKHKRRRRKQRLRQADRASSFSSITDSTMSLNIVTVTLNMERHHFLGISIVGQSNDRGDGGIYIGSIMKGGAVAADGRIEPGDMLLQVNDVNFENMSNDDAVRVLREIVSQTGPISLTVAKCWDPTPRSYFTVPRADPVRPIDPAAWLSHTAALTGALPRYGTSPCSSAVTRTSSSSLTSSVPGAPQLEEAPLTVKSDMSAVVRVMQLPDSGLEIRDRMWLKITIANAVIGADVVDWLYTHVEGFKERREARKYASSLLKHGFLRHTVNKITFSEQCYYVFGDLCSNLATLNLNSGSSGTSDQDTLAPLPHPAAPWPLGQGYPYQYPGPPPCFPPAYQDPGFSYGSGSTGSQQSEGSKSSGSTRSSRRAPGREKERRAAGAGGSGSESDHTAPSGVGSSWRERPAGQLSRGSSPRSQASATAPGLPPPHPTTKAYTVVGGPPGGPPVRELAAVPPELTGSRQSFQKAMGNPCEFFVDIM
For B1, the binding entry is reported as “binds”.
